PubChem BioAssay AID1259308 – NCATS – 2017
Screen: 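Knock-downs that increase output of a recombinant reporter protein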 (primary screen). System: human HEK293 embryonic kidney cells stably expressing firefly luciferase (HEK-CMV-Luc2-Hygro). Reagents: single siRNA against human genes, 0.8 pmol siRNA per well. Timing: 72 h. Detection: 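Reporter luminescence and viable-cell signal on separate replicate plates, given as percent of non-targeting control and median/MAD z-scores, plus per-cell luciferase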. Scale: total luciferase, z-score and total luciferase, % of control: higher = more reporter protein produced; luciferase per cell, z-score: higher = more reporter output per viable cell. Active means: 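Active when the median/MAD z-score for overall luciferase is greater than 3; a gene was taken forward for validation with new siRNAs if at least two of its three siRNAs passed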. Calls: active = raised luciferase; inactive = no rise.
Shown is an unselected part of about 59,000 deposited reagents. About 1,510 of all reagents (2.6%) count as active. 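Calls use total luciferase alone and ignore viability, so some active siRNAs may act by altering cell number.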 Reagents against one gene are numbered here. Not all columns of the deposit are shown. No sequences are given here.

no.	target	reagent no.	total luciferase, z-score	total luciferase, % of control	luciferase per cell, z-score	activity call
1	DR1	1	-1.07	60.6	-0.707	inactive
2	DR1	2	-1.18	58.5	-1.4	inactive
3	DR1	3	-0.289	76.1	-0.0599	inactive
4	NOSIP	1	-0.011	81.7	0.399	inactive
5	NOSIP	2	1.46	111	0.716	inactive
6	NOSIP	3	-0.914	63.7	-1.07	inactive
7	NOL3	1	-0.064	80.6	-0.467	inactive
8	NOL3	2	-1.65	49	-1.94	inactive
9	NOL3	3	-0.256	76.8	-0.483	inactive
10	CAPRIN1	1	0.314	88.1	0.268	inactive
11	CAPRIN1	2	-0.444	73	-0.281	inactive
12	CAPRIN1	3	2.78	137	1.18	inactive
13	UCK2	1	-0.663	68.7	-0.394	inactive
14	UCK2	2	1.63	114	1.03	inactive
15	UCK2	3	0.442	90.7	0.508	inactive
16	UCA1	1	0.369	89.2	0.399	inactive
17	UCA1	2	0.568	93.2	0.893	inactive
18	UCA1	3	1.27	107	0.477	inactive
19	SH3GLB2	1	1.51	112	0.641	inactive
20	SH3GLB2	2	0.166	85.2	0.0341	inactive
21	SH3GLB2	3	0.761	97	0.156	inactive
22	NDUFS2	1	-2.29	36.3	-1.96	inactive
23	NDUFS2	2	-0.195	78	-0.439	inactive
24	NDUFS2	3	-1.1	60	-0.788	inactive
25	MARCHF9	1	0.417	90.2	0.91	inactive
26	MARCHF9	2	0.0101	82.1	-0.0893	inactive
27	MARCHF9	3	-0.519	71.6	0.325	inactive
28	PSRC1	1	-0.193	78	-0.324	inactive
29	PSRC1	2	-0.529	71.4	-0.0739	inactive
30	PSRC1	3	1.06	103	1.02	inactive
31	PPIB	1	-1.19	58.2	-1.6	inactive
32	PPIB	2	-1.15	59	-1.04	inactive
33	PPIB	3	-0.123	79.4	-0.161	inactive
34	ASIC1	1	-0.365	74.6	-0.378	inactive
35	ASIC1	2	0.177	85.4	0.144	inactive
36	ASIC1	3	-0.46	72.7	-0.116	inactive
37	C1orf210	1	2.4	130	2	inactive
38	C1orf210	2	0.101	83.9	-0.102	inactive
39	C1orf210	3	0.163	85.1	0.228	inactive
40	DRC3	1	-0.0608	80.7	-0.349	inactive
41	DRC3	2	0.372	89.3	0.397	inactive
42	DRC3	3	-1.43	53.5	-0.359	inactive
43	NUDT19	1	1.14	105	2.46	inactive
44	NUDT19	2	0.911	100	0.904	inactive
45	NUDT19	3	1.5	112	0.994	inactive
46	DCAF11	1	-0.0318	81.3	-0.24	inactive
47	DCAF11	2	-0.126	79.4	-0.344	inactive
48	DCAF11	3	-0.0797	80.3	0.519	inactive
49	HSP90B1	1	-0.0281	81.3	1.96	inactive
50	HSP90B1	2	-1.35	55	-1.44	inactive
51	HSP90B1	3	2.33	128	2.43	inactive
52	MAP2K2	1	-1.51	51.9	-0.967	inactive
53	MAP2K2	2	0.881	99.4	1.82	inactive
54	MAP2K2	3	-1.45	53	-1.51	inactive
55	NR2F2-AS1	1	-0.457	72.8	-0.324	inactive
56	NR2F2-AS1	2	1.21	106	0.552	inactive
57	NR2F2-AS1	3	-0.849	65	-0.437	inactive

Copied from the entries so far for reference:
no.	target	reagent no.	total luciferase, z-score	total luciferase, % of control	luciferase per cell, z-score	activity call
38	C1orf210	2	0.101	83.9	-0.102	inactive
39	C1orf210	3	0.163	85.1	0.228	inactive
40	DRC3	1	-0.0608	80.7	-0.349	inactive
41	DRC3	2	0.372	89.3	0.397	inactive
42	DRC3	3	-1.43	53.5	-0.359	inactive
43	NUDT19	1	1.14	105	2.46	inactive
44	NUDT19	2	0.911	100	0.904	inactive
45	NUDT19	3	1.5	112	0.994	inactive
